Laboratory results from PMC11161512.
Results are given in words; binding and its absence hold for the method and conditions named. In cells and extracts the contact can be indirect. Some results given as binding are weak or reduced against the parent protein; the word gives no strength.

Amino acid sequences for entries named in this document (tags omitted). Residues count along the entry.
UniProt Q9EQY0, residues 21-977: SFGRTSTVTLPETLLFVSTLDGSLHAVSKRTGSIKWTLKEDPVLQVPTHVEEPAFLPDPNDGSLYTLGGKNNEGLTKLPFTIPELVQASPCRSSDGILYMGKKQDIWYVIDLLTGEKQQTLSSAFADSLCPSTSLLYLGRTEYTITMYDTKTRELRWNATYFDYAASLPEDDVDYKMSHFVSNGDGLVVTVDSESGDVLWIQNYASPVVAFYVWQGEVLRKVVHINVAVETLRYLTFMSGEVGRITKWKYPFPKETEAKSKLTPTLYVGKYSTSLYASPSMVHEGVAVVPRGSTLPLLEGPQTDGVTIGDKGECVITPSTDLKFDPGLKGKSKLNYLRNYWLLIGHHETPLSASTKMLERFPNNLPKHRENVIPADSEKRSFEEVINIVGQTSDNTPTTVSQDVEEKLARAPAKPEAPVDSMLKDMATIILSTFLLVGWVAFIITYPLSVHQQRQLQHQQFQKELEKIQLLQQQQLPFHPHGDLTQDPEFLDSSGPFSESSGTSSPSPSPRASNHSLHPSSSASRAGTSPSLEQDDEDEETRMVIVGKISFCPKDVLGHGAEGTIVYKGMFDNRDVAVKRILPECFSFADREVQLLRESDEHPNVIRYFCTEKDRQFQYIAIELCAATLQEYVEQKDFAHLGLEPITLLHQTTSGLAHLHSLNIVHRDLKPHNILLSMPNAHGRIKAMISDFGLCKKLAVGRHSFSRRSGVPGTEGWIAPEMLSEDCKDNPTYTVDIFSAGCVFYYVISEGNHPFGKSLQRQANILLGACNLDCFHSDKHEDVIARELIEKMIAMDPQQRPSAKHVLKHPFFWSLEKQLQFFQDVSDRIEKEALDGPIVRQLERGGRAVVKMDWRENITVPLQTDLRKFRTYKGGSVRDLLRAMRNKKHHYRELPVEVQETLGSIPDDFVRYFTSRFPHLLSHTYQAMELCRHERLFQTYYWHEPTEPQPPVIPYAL
UniProt Q6PHQ9: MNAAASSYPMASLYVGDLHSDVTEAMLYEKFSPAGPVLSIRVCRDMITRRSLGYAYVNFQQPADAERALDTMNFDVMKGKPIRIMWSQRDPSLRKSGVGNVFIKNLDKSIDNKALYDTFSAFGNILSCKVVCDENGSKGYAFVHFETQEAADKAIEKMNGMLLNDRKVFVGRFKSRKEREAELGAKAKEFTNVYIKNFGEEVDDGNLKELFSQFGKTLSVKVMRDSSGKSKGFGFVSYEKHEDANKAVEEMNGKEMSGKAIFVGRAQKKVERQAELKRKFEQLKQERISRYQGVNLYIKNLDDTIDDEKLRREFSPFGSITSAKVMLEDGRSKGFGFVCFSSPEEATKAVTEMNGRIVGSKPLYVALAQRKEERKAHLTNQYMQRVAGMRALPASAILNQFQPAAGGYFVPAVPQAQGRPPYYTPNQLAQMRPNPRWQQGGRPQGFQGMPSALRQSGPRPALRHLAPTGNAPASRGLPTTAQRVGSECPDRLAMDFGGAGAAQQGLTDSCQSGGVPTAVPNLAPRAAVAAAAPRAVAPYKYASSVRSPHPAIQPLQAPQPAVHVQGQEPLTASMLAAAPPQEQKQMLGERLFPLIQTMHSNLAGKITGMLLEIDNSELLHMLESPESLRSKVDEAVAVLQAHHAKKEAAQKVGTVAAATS

Target: Inositol-Requiring Enzyme 1α (Ire1α) (mouse (endogenous in embryonic cortex)) (UniProt Q9EQY0)
Assay: co-IP; endogenous Ire1α precipitated with anti-Ire1α antibody (Cell Signaling) and Sepharose A beads from E12.5 and E14.5 mouse cortical lysate (E1A buffer: 150 mM NaCl, 50 mM HEPES pH 7.0, 0.1% NP-40), 4 °C; rabbit IgG as control; Western blotting of co-precipitated proteins, normalised to precipitated Ire1α

binding: binds
Substance: PABPC4 (from UniProt Q6PHQ9 1-660)
